In publication PMC7819943, “Rice protein-binding microarrays: a tool to detect cis-acting elements near promoter regions in rice”:
Some of the results follow.

Each sequence was assayed against T1, OsSMF1 (Oryza sativa, UniProt Q6ZLB0 1-436) (assay: protein-binding microarray (RPBM); PBS, 2% BSA, 51.3 ng/ul salmon testes DNA, 50 uM zinc acetate, 200 nM TF, 25 C, 1 h; high values mean tight binding). Settings: protein: recombinant; tags: N-terminal polyhistidine and DsRed monomer fusion (pET32a); chain copies: 2; label: CyDye5-dUTP incorporated in the synthesized complementary strand; 3' TTTTT single-stranded linker to array surface; dsDNA, one strand shown.
T1 sequence: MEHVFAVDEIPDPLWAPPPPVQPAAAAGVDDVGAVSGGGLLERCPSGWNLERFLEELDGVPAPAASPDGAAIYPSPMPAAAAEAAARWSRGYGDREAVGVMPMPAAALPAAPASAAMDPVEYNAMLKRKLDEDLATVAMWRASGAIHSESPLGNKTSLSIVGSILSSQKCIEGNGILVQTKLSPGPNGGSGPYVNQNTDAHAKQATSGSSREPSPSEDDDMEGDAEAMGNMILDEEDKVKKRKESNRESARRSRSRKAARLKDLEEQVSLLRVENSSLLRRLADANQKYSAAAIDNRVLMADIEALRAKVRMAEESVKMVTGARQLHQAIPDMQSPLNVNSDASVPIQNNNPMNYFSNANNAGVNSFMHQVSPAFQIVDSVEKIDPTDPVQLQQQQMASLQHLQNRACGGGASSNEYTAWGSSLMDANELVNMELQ
Procedure, shortened: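 Ni–NTA purification followed expression in E. coli BL21-CodonPlus of transcription factors fused N-terminally to a polyhistidine tag and DsRed. At 200 nM in PBS with 2% BSA, salmon testes DNA and 50 µM zinc acetate, the protein was incubated for 1 h at 25 °C with a custom Agilent array that had been primer-extended with Cy5-dUTP and blocked with 2% BSA. After washing, the array was read on an Axon 4000B scanner. The binding signal is per-feature fluorescence intensity in arbitrary units.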

Sequence	binding signal
TGTTTCATCGACCGGTCTGGCCACGTGTCGTTGGACGATCCGGAGTCACCTAGTGCAG	12800 fluorescence intensity (a.u.)
TAGTTTCGCTAGTTGACAGATCATCACAATGCAAATGAAGCGGAGTCACCTAGTGCAG	3900 fluorescence intensity (a.u.)
AAGGAGAGATGAGAAAGACAAGCCACGTTAGCGAAAACCGCGGAGTCACCTAGTGCAG	5060 fluorescence intensity (a.u.)
CAATTCTAGTGACGATCCGAGCGTCATATCTGCCTAGTTACGGAGTCACCTAGTGCAG	4740 fluorescence intensity (a.u.)
GCAGCCTGGTCAGCCAGCCAGACAGCCCGCACCCACGCGGCGGAGTCACCTAGTGCAG	3750 fluorescence intensity (a.u.)
ACAAACCGAGGAGGAGGAGGAGGGCCCACCAGCCACCACGCGGAGTCACCTAGTGCAG	3310 fluorescence intensity (a.u.)
CAAAATATCTCAGCACGTGGCGATGGCTGGAGGGGAGGCGCGGAGTCACCTAGTGCAG	3870 fluorescence intensity (a.u.)
GAATCTAGATGCTGTTCCATCTCCAAATGTTCAAACCCTCCGGAGTCACCTAGTGCAG	4870 fluorescence intensity (a.u.)
ACAATACTACTATTGCCTGTTACGTAATTATGCATCTCTACGGAGTCACCTAGTGCAG	4040 fluorescence intensity (a.u.)
GTATCCATATATCCGATATGACACGCCAAAACTTTACACCCGGAGTCACCTAGTGCAG	4870 fluorescence intensity (a.u.)
AACCTGCTGTCCACTACAACGTCACATTTCAACAAATCCACGGAGTCACCTAGTGCAG	34200 fluorescence intensity (a.u.)
TGTTGCTCAGCCATAGCTCCCAGCCTCCCACGTCCGCACGCGGAGTCACCTAGTGCAG	7210 fluorescence intensity (a.u.)
AGAGTTCGTGACGGCCCACGTGCCTTCATGTATGGGCTTTCGGAGTCACCTAGTGCAG	4440 fluorescence intensity (a.u.)
GCGCTCACTTTTCAGCTCATCACTCCGTCACCTCGTGCTCCGGAGTCACCTAGTGCAG	3850 fluorescence intensity (a.u.)
GGCTCTTTCTATTACGTACGTATGCACTATCTGTATATAGCGGAGTCACCTAGTGCAG	5100 fluorescence intensity (a.u.)
GATCAAGGAGGCCGTGGCGGACAGGGAGTGCGGGGTGGATCGGAGTCACCTAGTGCAG	3360 fluorescence intensity (a.u.)
AGTGAGCACGCCTACGTGGCAGTTTGGCCGCATTGGCGATCGGAGTCACCTAGTGCAG	16900 fluorescence intensity (a.u.)
TTTGCTGACTAGGATGCCATGTCAGCAAAGCCAGACAAAACGGAGTCACCTAGTGCAG	7290 fluorescence intensity (a.u.)
TGGACAACATGTCGGCCACTCATCTAGTCATCTTAGAGTTCGGAGTCACCTAGTGCAG	4090 fluorescence intensity (a.u.)
ACACAGCAGCCGCACATCACCCTGACATCTCTCAATCGGACGGAGTCACCTAGTGCAG	3930 fluorescence intensity (a.u.)
TCAGATGAACTTATTCCCCACAAATATGGTCCTTACGTAGCGGAGTCACCTAGTGCAG	3530 fluorescence intensity (a.u.)
TTAAGTTCCGAGAAATGACGTGTTTGGCTACAATGCTAGCCGGAGTCACCTAGTGCAG	7650 fluorescence intensity (a.u.)
TCCTTTTCCGAACCAAGTCCGCACCGCTCCGCACCCATTTCGGAGTCACCTAGTGCAG	3840 fluorescence intensity (a.u.)
TCGATTGGGGATTGGGGATTGGGGATCAGGAGGGATGGGGCGGAGTCACCTAGTGCAG	4350 fluorescence intensity (a.u.)
TTGGTAGGTTCGACCTACTAGATTGTTGTTGATAATATAACGGAGTCACCTAGTGCAG	51700 fluorescence intensity (a.u.)
CTCGCCGCCGCCGCCGCGGGGCGTCATTCTCTCCGGTGCGCGGAGTCACCTAGTGCAG	3850 fluorescence intensity (a.u.)
TTCAACCCTGCGATTCAAAGGGGCCCTTAGCATTGCAAAACGGAGTCACCTAGTGCAG	4630 fluorescence intensity (a.u.)

A second format for some results above:
Sequence | binding signal
TTGGTAGGTTCGACCTACTAGATTGTTGTTGATAATATAACGGAGTCACCTAGTGCAG | 51700 fluorescence intensity (a.u.)
CTCGCCGCCGCCGCCGCGGGGCGTCATTCTCTCCGGTGCGCGGAGTCACCTAGTGCAG | 3850 fluorescence intensity (a.u.)
TTCAACCCTGCGATTCAAAGGGGCCCTTAGCATTGCAAAACGGAGTCACCTAGTGCAG | 4630 fluorescence intensity (a.u.)

(list continues)

Sequence	binding signal
TCGATTACTTCGCTCGTATGGTTCTCTGACGGATAGCCGACGGAGTCACCTAGTGCAG	19700 fluorescence intensity (a.u.)
AAGTCATTGGGGAAGCTTGTTTCACTACGTGGACTTAACCCGGAGTCACCTAGTGCAG	5250 fluorescence intensity (a.u.)
CGGCCGCCGCTGGTGCCATGACGACATCCTCTCTGACCGCCGGAGTCACCTAGTGCAG	3360 fluorescence intensity (a.u.)
ACGGATTGTGATCCTTTAACTTAAATCACATGACTTTCAGCGGAGTCACCTAGTGCAG	21900 fluorescence intensity (a.u.)
CTCTCTCAGATCCTACGTCCCAAATCGCTCCCACCTCACCCGGAGTCACCTAGTGCAG	3820 fluorescence intensity (a.u.)
CCTGTGTGCCACCTGGGAATAAATTTGTACTCGTGCCATTCGGAGTCACCTAGTGCAG	3900 fluorescence intensity (a.u.)
CCTTCCCCGCCCTCCACCGCTGTGACCGCGCGCTGTCTGTCGGAGTCACCTAGTGCAG	3310 fluorescence intensity (a.u.)
CCTCGTTTCCACCTCTGTTGCCACCTCTAGTAGGACGCACCGGAGTCACCTAGTGCAG	3990 fluorescence intensity (a.u.)
TTTTATCAAATTACTTATATGGTTCTCACAATTCAAAGCCCGGAGTCACCTAGTGCAG	13900 fluorescence intensity (a.u.)
GGCTGGCTGGGCTGGTGGGTACTGGGTTTCACTGATGAAACGGAGTCACCTAGTGCAG	3810 fluorescence intensity (a.u.)
TTAAAGCTTATCTTAATGCAATTTACGTCATCATTTCGTGCGGAGTCACCTAGTGCAG	11300 fluorescence intensity (a.u.)
GTTGTACACTAGTAGTACCACGTATCAATGCTCTCTCGATCGGAGTCACCTAGTGCAG	4720 fluorescence intensity (a.u.)
GCCATGTCAAATAAATACAAAGTCAACGTGTCACATTAGCCGGAGTCACCTAGTGCAG	8310 fluorescence intensity (a.u.)
TTCCTCCCGCTCATCAGCCACATCGACATCATCCACTGCCCGGAGTCACCTAGTGCAG	7100 fluorescence intensity (a.u.)
CTTTCCTTGTGTCCAGATCTGAGTTGGTGCATCACTAAGACGGAGTCACCTAGTGCAG	3880 fluorescence intensity (a.u.)
ACCTTGGTGAAACACAAATTAATTACTCGCCCACGTAGATCGGAGTCACCTAGTGCAG	4100 fluorescence intensity (a.u.)
CGACTACGAGACGCGAGGTTGAAGACAAGTAAGTACTCCTCGGAGTCACCTAGTGCAG	65500 fluorescence intensity (a.u.)
AGGTTTAGGGTTTAGGGATGAATCTGGACAAATGATTGTTCGGAGTCACCTAGTGCAG	3560 fluorescence intensity (a.u.)
TAATATCTTCTATGTAGGAAAATATGCTGACATGGATCTCCGGAGTCACCTAGTGCAG	4640 fluorescence intensity (a.u.)
TAGATTTACTCACAGCTTGCCACATCAGAGTTTGTAAACACGGAGTCACCTAGTGCAG	7600 fluorescence intensity (a.u.)
TTGCAGTAGAGTTCCGATGAGATGACGCCGCTAGATCCCCCGGAGTCACCTAGTGCAG	4600 fluorescence intensity (a.u.)
GAAAGTGCGTCACGAAATCTATTAGAATATGATTAATTAACGGAGTCACCTAGTGCAG	3140 fluorescence intensity (a.u.)
TCCCGGCCGCCGCAGCCTGCGTGCGTGCGTGTGCGTGCGACGGAGTCACCTAGTGCAG	9470 fluorescence intensity (a.u.)
TCATTCAAATCTCCCATCTGCCGCTGACGCATGGGGCCATCGGAGTCACCTAGTGCAG	3690 fluorescence intensity (a.u.)
ATAAAGTCCTTATCGGACACTAAACGCACTTTCCTAAAGACGGAGTCACCTAGTGCAG	39200 fluorescence intensity (a.u.)
CCTCGAACGTGATGTCACTGCTACTGGGCCCTACATCCTCCGGAGTCACCTAGTGCAG	13200 fluorescence intensity (a.u.)
CCCTTCGCCTCCGTGGCGCCTCCTCCCTTCTCTCTCCTTCCGGAGTCACCTAGTGCAG	3460 fluorescence intensity (a.u.)
